Measurements taken from the supplement of paper PMC10849652.
The list shows a part of the results.

By UniProt entry, the sequences of proteins in these tests, tags left out. Where a name states a change or a piece, a line headed by the entry shows the natural chain unless it says otherwise.
UniProt Q68CQ7: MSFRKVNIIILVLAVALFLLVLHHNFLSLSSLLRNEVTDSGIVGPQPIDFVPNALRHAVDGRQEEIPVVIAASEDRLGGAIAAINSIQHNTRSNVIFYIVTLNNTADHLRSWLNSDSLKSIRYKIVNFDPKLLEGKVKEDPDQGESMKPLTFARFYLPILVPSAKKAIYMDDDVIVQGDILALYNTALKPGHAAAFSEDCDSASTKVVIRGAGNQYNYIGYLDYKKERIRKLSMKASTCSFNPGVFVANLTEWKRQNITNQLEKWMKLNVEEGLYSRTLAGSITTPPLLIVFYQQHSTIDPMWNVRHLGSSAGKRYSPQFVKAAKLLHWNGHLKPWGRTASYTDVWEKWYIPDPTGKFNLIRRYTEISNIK
UniProt Q8TDQ7: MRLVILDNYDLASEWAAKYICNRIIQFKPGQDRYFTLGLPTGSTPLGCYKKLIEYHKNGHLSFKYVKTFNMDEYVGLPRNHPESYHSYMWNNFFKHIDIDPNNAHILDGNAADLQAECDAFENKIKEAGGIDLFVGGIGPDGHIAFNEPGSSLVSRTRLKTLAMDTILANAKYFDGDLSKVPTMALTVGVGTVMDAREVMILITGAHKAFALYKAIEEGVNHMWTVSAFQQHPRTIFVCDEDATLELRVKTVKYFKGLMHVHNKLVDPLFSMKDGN
UniProt P29992, whole entry, looked up: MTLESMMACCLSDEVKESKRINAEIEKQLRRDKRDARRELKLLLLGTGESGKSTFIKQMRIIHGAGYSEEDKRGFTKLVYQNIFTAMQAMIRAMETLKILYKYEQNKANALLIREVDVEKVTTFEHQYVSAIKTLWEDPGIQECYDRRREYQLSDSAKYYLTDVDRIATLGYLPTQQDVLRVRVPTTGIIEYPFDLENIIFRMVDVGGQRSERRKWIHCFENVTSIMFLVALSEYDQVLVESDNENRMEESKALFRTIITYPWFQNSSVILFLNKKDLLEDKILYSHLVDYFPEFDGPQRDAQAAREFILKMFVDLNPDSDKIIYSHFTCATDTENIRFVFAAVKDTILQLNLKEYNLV
UniProt Q13098: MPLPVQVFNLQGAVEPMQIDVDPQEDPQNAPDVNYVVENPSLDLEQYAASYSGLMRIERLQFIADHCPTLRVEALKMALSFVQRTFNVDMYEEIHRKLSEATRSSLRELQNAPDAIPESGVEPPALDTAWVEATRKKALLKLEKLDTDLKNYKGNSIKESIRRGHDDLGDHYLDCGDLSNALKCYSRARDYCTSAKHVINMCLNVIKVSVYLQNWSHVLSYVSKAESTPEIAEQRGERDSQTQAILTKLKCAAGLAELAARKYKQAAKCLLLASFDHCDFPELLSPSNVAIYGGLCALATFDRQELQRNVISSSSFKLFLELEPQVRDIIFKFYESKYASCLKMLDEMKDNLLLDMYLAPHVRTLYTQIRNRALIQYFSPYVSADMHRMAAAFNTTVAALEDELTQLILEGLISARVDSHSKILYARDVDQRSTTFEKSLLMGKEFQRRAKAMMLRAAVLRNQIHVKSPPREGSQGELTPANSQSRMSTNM
UniProt Q92990: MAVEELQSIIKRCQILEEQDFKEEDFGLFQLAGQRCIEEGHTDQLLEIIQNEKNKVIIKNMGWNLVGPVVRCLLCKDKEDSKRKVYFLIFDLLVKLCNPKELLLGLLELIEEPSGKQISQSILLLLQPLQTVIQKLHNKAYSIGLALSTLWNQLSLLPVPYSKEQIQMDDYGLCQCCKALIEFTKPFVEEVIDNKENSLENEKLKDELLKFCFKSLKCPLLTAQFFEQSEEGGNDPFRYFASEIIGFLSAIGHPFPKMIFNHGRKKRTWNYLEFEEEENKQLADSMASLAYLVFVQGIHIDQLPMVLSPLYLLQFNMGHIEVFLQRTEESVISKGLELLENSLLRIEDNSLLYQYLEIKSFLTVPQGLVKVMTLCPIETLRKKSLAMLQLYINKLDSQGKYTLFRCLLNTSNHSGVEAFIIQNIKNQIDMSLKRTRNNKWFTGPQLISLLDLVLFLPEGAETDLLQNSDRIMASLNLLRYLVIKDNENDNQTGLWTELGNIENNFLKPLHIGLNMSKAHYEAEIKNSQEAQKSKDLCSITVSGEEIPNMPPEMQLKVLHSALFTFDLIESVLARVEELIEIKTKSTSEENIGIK
UniProt Q9Y223: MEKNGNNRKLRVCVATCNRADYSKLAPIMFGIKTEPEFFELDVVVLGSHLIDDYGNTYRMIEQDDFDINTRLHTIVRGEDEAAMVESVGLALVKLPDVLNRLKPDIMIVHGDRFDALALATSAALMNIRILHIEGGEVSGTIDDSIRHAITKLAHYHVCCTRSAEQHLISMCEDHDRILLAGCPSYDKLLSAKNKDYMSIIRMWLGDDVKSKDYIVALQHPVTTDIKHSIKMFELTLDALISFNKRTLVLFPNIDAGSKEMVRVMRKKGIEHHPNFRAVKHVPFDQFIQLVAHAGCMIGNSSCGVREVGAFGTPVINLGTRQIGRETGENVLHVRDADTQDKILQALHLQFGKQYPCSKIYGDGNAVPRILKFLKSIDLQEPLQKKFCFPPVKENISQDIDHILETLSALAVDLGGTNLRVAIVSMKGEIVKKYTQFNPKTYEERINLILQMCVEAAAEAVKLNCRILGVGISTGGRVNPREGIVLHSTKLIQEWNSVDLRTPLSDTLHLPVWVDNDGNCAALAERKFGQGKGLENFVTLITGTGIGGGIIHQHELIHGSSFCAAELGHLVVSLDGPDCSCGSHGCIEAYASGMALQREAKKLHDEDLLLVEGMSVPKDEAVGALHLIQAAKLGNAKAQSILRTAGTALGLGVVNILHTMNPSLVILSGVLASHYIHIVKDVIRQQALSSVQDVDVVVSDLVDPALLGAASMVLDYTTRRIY
UniProt Q9NS18: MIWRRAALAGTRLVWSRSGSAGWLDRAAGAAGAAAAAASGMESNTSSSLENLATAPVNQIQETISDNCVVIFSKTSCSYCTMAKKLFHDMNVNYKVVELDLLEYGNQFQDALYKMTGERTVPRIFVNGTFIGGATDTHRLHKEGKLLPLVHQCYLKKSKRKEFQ
UniProt Q9NPR9: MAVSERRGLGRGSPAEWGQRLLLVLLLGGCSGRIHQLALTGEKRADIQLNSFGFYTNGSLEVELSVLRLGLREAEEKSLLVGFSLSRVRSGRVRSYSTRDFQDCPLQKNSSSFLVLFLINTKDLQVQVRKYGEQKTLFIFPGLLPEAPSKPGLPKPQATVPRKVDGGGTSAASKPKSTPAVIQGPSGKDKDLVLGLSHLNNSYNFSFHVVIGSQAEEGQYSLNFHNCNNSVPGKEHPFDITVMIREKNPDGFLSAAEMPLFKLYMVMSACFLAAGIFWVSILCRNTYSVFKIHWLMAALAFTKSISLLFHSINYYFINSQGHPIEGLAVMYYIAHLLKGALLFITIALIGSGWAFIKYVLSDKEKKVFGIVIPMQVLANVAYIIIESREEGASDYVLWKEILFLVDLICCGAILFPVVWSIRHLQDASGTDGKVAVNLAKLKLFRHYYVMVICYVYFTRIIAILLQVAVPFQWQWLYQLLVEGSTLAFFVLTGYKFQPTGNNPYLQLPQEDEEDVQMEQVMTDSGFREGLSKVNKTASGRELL
UniProt Q8NBJ4: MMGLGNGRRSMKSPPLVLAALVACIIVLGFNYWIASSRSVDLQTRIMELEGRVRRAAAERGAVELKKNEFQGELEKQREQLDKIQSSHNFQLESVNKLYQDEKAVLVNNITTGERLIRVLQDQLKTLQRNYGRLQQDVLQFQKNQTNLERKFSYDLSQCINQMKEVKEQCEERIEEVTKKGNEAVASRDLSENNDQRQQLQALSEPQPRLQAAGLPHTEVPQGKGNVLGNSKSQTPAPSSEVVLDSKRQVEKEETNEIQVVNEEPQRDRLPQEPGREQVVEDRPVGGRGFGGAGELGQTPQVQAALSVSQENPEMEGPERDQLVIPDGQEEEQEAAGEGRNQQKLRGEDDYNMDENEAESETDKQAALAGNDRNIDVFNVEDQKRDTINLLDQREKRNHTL
UniProt Q5VW38: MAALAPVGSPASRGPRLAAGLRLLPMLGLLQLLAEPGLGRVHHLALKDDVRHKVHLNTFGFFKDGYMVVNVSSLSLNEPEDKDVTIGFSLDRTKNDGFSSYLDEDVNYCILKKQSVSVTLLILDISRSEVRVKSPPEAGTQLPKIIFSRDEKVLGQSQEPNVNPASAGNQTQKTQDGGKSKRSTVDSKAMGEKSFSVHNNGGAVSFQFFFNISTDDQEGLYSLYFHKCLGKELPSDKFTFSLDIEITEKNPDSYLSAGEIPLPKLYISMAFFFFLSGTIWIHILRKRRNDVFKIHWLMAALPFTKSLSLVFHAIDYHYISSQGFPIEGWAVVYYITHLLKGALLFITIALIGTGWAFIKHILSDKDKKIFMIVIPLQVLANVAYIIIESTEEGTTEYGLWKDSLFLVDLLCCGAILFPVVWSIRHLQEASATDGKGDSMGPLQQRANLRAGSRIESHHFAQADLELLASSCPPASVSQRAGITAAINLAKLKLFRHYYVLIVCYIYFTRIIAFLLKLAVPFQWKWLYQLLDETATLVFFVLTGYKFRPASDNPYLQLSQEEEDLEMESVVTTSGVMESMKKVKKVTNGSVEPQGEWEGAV
UniProt Q9HAV7: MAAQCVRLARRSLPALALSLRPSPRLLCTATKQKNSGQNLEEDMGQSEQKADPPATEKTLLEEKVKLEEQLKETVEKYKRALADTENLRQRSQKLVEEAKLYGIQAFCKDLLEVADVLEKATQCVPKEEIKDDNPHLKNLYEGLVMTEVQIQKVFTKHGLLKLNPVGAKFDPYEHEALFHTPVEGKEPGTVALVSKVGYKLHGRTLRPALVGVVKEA
UniProt Q04760: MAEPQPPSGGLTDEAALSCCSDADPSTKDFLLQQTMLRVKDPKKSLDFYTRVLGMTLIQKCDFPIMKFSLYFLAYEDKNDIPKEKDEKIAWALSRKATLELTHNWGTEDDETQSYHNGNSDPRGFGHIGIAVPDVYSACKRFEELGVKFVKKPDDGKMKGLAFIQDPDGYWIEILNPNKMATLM
UniProt Q12849: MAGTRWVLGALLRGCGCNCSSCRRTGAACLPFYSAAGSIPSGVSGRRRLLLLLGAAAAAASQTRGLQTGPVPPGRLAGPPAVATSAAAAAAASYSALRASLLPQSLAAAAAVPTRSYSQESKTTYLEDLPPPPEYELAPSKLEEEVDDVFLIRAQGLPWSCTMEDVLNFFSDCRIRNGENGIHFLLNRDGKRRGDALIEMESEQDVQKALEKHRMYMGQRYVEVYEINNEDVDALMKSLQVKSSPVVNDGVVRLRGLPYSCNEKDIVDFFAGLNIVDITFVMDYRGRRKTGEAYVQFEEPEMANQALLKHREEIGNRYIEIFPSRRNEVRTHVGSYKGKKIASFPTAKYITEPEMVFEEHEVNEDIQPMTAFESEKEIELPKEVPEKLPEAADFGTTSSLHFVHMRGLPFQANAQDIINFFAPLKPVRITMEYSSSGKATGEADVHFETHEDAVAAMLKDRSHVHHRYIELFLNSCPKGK
UniProt Q9Y3E0: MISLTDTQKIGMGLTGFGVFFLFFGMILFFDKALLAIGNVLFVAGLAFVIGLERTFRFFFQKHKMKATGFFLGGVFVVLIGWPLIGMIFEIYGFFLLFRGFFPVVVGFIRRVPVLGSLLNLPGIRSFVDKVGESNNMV
UniProt P25098: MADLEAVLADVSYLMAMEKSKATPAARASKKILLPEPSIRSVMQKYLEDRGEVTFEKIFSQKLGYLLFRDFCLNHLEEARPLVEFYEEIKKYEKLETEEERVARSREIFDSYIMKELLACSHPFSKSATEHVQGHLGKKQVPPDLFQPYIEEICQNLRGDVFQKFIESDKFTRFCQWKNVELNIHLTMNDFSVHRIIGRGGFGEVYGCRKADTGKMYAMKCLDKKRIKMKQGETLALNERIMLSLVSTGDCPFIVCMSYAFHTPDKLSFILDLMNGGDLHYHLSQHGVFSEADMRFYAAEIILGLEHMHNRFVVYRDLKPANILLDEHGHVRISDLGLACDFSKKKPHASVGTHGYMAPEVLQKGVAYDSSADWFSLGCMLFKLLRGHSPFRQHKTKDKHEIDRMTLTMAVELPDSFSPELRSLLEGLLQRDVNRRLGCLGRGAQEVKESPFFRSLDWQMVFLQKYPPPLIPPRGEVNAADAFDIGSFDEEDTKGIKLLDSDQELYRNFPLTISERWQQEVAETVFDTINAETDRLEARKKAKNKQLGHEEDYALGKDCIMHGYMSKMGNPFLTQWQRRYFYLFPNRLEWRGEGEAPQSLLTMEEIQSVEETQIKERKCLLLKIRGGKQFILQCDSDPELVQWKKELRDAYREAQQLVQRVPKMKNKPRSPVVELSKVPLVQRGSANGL
UniProt P50148, whole entry, looked up: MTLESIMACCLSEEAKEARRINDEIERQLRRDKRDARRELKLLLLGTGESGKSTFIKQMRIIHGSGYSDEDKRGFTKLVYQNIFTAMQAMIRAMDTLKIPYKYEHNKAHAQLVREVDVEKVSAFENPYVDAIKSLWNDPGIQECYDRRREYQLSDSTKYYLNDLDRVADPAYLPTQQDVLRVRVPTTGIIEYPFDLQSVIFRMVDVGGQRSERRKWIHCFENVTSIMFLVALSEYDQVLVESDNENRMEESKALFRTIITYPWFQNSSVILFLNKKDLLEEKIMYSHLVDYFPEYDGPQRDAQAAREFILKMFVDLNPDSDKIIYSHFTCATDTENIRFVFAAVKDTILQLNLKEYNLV

Compound: c1cn2cc(-c3ccc4cn[nH]c4c3)nc(Nc3ccc(N4CCOCC4)cc3)c2n1 [entospletinib]
Test: log2 fold change, soluble protein after heating vs DMSO (PISA); higher = thermal stabilisation; K562 cells, 10 uM, 30 min; active = over 0.2 and 3.5 SD of the protein, either way, in both replicates (recomputed)
Summary of the method: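 Thermal stability values are relative to control samples and come from duplicates. They are expressed as log2 fold changes. For measurement, K562 cells (2×10^6 cells/mL) received 10 μM compound for 30 min, and aliquots were heated for 3 min over 48°C-58°C, pooled, and extracted at 4°C in PBS with 0.5% NP-40. Soluble protein, the supernatant after 21,000xg for 90 min, was quantified by TMTpro 16plex LC-MS/MS with equalised channel sums.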

GPN1 isoform 5 (UniProt Q9HCN4)
log2 fold change: inactive: 0.043

GOSR2 isoform 2 (UniProt O14653)
log2 fold change: inactive: -0.095

GLT8D1 (UniProt Q68CQ7)
log2 fold change: inactive: -0.279

GOLGA2 (UniProt Q08379)
log2 fold change: inactive: 0.042

GNPTAB (UniProt Q3T906)
log2 fold change: inactive: -0.167

GNPDA2 (UniProt Q8TDQ7)
log2 fold change: inactive: 0.004

GNA11 (UniProt P29992)
log2 fold change: inactive: 0.069

GPS1 isoform 7 (UniProt Q13098)
log2 fold change: inactive: -0.002

GLMN (UniProt Q92990)
log2 fold change: inactive: -0.038

GNE isoform 2 (UniProt Q9Y223)
log2 fold change: inactive: 0.021

GNMT (UniProt Q14749)
log2 fold change: inactive: 0.096

GLRX2 isoform 2 (UniProt Q9NS18)
log2 fold change: inactive: -0.07

GPR108 (UniProt Q9NPR9)
log2 fold change: inactive: 0.075

GPI (UniProt P06744)
log2 fold change: inactive: -0.063

GPR89A (UniProt B7ZAQ6)
log2 fold change: inactive: -0.011

GOLM1 (UniProt Q8NBJ4)
log2 fold change: inactive: 0.052

GPBP1 isoform 2 (UniProt Q86WP2)
log2 fold change: inactive: -0.064

GPR107 (UniProt Q5VW38)
log2 fold change: inactive: 0.002

GRPEL1 (UniProt Q9HAV7)
log2 fold change: inactive: -0.018

GMPR2 isoform 2 (UniProt Q9P2T1)
log2 fold change: inactive: -0.012

GOLIM4 (UniProt O00461)
log2 fold change: inactive: 0.115

GMFG (UniProt O60234)
log2 fold change: inactive: 0.07

GLO1 (UniProt Q04760)
log2 fold change: inactive: -0.034

GINS4 (UniProt Q9BRT9)
log2 fold change: inactive: -0.015

GRSF1 (UniProt Q12849)
log2 fold change: inactive: 0.12

GLRX5 (UniProt Q86SX6)
log2 fold change: inactive: -0.123

GPATCH1 (UniProt Q9BRR8)
log2 fold change: inactive: -0.102

GOLT1B (UniProt Q9Y3E0)
log2 fold change: inactive: -0.003

GRK2 (UniProt P25098)
log2 fold change: inactive: -0.01

GNAQ (UniProt P50148)
log2 fold change: inactive: 0.006

GOSR1 (UniProt E9PCW1)
log2 fold change: inactive: -0.008

GOLIM4 (UniProt F8W785)
log2 fold change: inactive: 0.035

GPS1 (UniProt A8K070)
log2 fold change: inactive: 0.007
